Reference: paper PMC13086497, “Heat shock factor regulation of antimicrobial peptides expression suggests a conserved defense mechanism induced by febrile temperature in arthropods”

Assays:
[1] = target: T1, LvHSF1 (rLvHSF1-GST) (Litopenaeus vannamei) (UniProt X2D760); experiment: competition with a labelled probe; conditions: excess unlabeled probe2 reduces shift, EMSA: 10 ug recombinant protein, 20 fmol biotin probe, LightShift Chemiluminescent EMSA kit, 5% native PAGE, pH and temperature not stated
T1 sequence (looked up, limits assumed): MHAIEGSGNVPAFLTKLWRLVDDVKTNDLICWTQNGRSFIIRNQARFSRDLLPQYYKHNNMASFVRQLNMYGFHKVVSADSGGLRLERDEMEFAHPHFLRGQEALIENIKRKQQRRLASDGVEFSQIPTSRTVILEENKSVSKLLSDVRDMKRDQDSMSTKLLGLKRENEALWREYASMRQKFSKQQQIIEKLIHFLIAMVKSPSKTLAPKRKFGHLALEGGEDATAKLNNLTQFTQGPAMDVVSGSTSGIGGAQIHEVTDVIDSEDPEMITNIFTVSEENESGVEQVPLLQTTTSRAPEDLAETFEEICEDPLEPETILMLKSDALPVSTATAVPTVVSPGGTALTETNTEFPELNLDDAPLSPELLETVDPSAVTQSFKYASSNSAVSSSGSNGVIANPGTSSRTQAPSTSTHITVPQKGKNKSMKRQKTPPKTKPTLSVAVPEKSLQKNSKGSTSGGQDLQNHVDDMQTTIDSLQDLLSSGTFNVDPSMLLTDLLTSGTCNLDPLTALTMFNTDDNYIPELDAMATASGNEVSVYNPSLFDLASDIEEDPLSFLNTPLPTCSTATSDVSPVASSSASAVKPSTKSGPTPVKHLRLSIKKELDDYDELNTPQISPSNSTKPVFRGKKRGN

[2] = target: T1, LvHSF1 (rLvHSF1-GST) (Litopenaeus vannamei); experiment: EMSA; conditions: EMSA: 10 ug recombinant protein, 20 fmol biotin probe, LightShift Chemiluminescent EMSA kit, 5% native PAGE, pH and temperature not stated, label: biotin
[3] = test system: GST; experiment: EMSA; conditions: EMSA: 10 ug recombinant protein, 20 fmol biotin probe, LightShift Chemiluminescent EMSA kit, 5% native PAGE, pH and temperature not stated

Sequence: GTTGGGATTTCCATGATGACTTTTCGAGGAATTAGTGGCTGCGTG (double strand) [SWD-Probe2]
- binding result [1]: binds

Sequence: GTTGGGATTTCCATGATGGATTGGCTCGCCATTAGTGGCTGCGTG (double strand) [Mut-SWD-Probe2]
- binding result [2]: no binding

Sequence: TACCACTAGGACTTTCTATAGAACCATCTTTGCTTCACTATAACA (double strand) [SWD-Probe1]
- binding result [3]: no binding

For at least one entry, the source does not settle the construct or the ends of the probe. For part of these data: Negatives hold for the conditions tested. At least one verdict rests on a figure or table, not on a statement of the authors. For part of these data: Where a protein sequence is shown, tags need not be part of it.
